Results reported in PMC8221569.
Results are given in words; binding and its absence hold for the method and conditions named. Binding seen in cells or lysates may run through a third protein. A yes stands for co-enrichment or nearness to the bait. Other partners may have been found. For some of these results: No binding means not detected with the bait. Tags and fused reporters may be left off the sequences shown.

Key:
[1] = target: T1, DNAJC9-Q224A-R227A-M238A-Y242A-MYC-Flag (4A) (human) (UniProt Q8WXX5); experiment: affinity purification with mass spectrometry; label-free; DNAJC9-Myc-Flag WT, J, 4A and control purifications on anti-Flag M2 beads from MNase-digested U-2-OS chromatin extracts; n = 6
T1 sequence: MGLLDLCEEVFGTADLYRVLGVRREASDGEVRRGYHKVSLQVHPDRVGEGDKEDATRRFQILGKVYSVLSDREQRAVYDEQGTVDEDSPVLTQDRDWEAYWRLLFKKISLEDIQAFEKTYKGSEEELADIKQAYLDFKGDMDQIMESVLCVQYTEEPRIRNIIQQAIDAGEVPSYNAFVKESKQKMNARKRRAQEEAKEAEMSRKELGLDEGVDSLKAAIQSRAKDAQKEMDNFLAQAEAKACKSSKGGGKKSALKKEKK

[2] = target: T2, DNAJC9-MYC-Flag WT (human) (UniProt Q8WXX5); experiment: as above
T2 sequence: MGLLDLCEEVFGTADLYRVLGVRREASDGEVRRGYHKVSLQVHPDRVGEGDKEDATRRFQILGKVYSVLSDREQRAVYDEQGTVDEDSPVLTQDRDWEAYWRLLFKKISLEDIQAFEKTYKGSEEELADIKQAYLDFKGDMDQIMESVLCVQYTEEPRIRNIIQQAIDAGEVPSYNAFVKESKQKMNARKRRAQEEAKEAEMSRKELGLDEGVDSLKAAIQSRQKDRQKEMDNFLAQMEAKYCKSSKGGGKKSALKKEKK

[3] = target: T3, DNAJC9-H43Q-D45N-MYC-Flag (J) (human) (UniProt Q8WXX5); experiment: as above
T3 sequence: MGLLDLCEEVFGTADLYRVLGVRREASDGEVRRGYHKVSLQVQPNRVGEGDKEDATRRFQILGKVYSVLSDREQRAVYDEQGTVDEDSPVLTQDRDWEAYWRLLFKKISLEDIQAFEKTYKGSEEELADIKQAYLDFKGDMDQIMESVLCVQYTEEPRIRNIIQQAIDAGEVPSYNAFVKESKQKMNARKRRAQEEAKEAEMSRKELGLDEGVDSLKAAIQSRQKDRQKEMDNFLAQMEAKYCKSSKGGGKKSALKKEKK

[4] = target: T1, DNAJC9-Q224A-R227A-M238A-Y242A-MYC-Flag (4A) (human); experiment: affinity purification with mass spectrometry; triple SILAC; DNAJC9-Myc-Flag WT, 4A and control purifications on anti-Flag M2 beads from U-2-OS extracts; n = 2

B1: SPT2 (endogenous) (protein, UniProt Q68D10 1-685)
chain: MDFREILMIASKGQGVNNVPKRYSLAVGPPKKDPKVKGVQSAAVQAFLKRKEEELRRKALEEKRRKEELVKKRIELKHDKKARAMAKRTKDNFHGYNGIPIEEKSKKRQATESHTSQGTDREYEMEEENEFLEYNHAESEQEYEEEQEPPKVESKPKVPLKSAPPPMNFTDLLRLAEKKQFEPVEIKVVKKSEERPMTAEELREREFLERKHRRKKLETDGKLPPTVSKKAPSQKESVGTKLSKGSGDRHPSSKGMPLPHAEKKSRPSMANEKHLALSSSKSMPGERIKAGSGNSSQPSLREGHDKPVFNGAGKPHSSTSSPSVPKTSASRTQKSAVEHKAKKSLSHPSHSRPGPMVTPHNKAKSPGVRQPGSSSSSAPGQPSTGVARPTVSSGPVPRRQNGSSSSGPERSISGSKKPTNDSNPSRRTVSGTCGPGQPASSSGGPGRPISGSVSSARPLGSSRGPGRPVSSPHELRRPVSGLGPPGRSVSGPGRSISGSIPAGRTVSNSVPGRPVSSLGPGQTVSSSGPTIKPKCTVVSETISSKNIISRSSNGQMNGMKPPLSGYRAAQGPQRLPFPTGYKRQREYEEEDDDDDEYDSEMEDFIEDEGEPQEEISKHIREIFGYDRKKYKDESDYALRYMESSWKEQQKEEAKSLRLGMQEDLEEMRREEEEMQRRRAKKLKRR
[1]
  binding: binds
[2]
  binding: binds
[3]
  binding: binds

B2: TONSL (endogenous) (protein, UniProt Q96HA7 1-1378)
chain: MSLERELRQLSKAKAKAQRAGQRREEAALCHQLGELLAGHGRYAEALEQHWQELQLRERADDPLGCAVAHRKIGERLAEMEDYPAALQHQHQYLELAHSLRNHTELQRAWATIGRTHLDIYDHCQSRDALLQAQAAFEKSLAIVDEELEGTLAQGELNEMRTRLYLNLGLTFESLQQTALCNDYFRKSIFLAEQNHLYEDLFRARYNLGTIHWRAGQHSQAMRCLEGARECAHTMRKRFMESECCVVIAQVLQDLGDFLAAKRALKKAYRLGSQKPVQRAAICQNLQHVLAVVRLQQQLEEAEGRDPQGAMVICEQLGDLFSKAGDFPRAAEAYQKQLRFAELLDRPGAERAIIHVSLATTLGDMKDHHGAVRHYEEELRLRSGNVLEEAKTWLNIALSREEAGDAYELLAPCFQKALSCAQQAQRPQLQRQVLQHLHTVQLRLQPQEAPETETRLRELSVAEDEDEEEEAEEAAATAESEALEAGEVELSEGEDDTDGLTPQLEEDEELQGHLGRRKGSKWNRRNDMGETLLHRACIEGQLRRVQDLVRQGHPLNPRDYCGWTPLHEACNYGHLEIVRFLLDHGAAVDDPGGQGCEGITPLHDALNCGHFEVAELLLERGASVTLRTRKGLSPLETLQQWVKLYRRDLDLETRQKARAMEMLLQAAASGQDPHSSQAFHTPSSLLFDPETSPPLSPCPEPPSNSTRLPEASQAHVRVSPGQAAPAMARPRRSRHGPASSSSSSEGEDSAGPARPSQKRPRCSATAQRVAAWTPGPASNREAATASTSRAAYQAAIRGVGSAQSRLGPGPPRGHSKALAPQAALIPEEECLAGDWLELDMPLTRSRRPRPRGTGDNRRPSSTSGSDSEESRPRARAKQVRLTCMQSCSAPVNAGPSSLASEPPGSPSTPRVSEPSGDSSAAGQPLGPAPPPPIRVRVQVQDHLFLIPVPHSSDTHSVAWLAEQAAQRYYQTCGLLPRLTLRKEGALLAPQDLIPDVLQSNDEVLAEVTSWDLPPLTDRYRRACQSLGQGEHQQVLQAVELQGLGLSFSACSLALDQAQLTPLLRALKLHTALRELRLAGNRLGDKCVAELVAALGTMPSLALLDLSSNHLGPEGLRQLAMGLPGQATLQSLEELDLSMNPLGDGCGQSLASLLHACPLLSTLRLQACGFGPSFFLSHQTALGSAFQDAEHLKTLSLSYNALGAPALARTLQSLPAGTLLHLELSSVAAGKGDSDLMEPVFRYLAKEGCALAHLTLSANHLGDKAVRDLCRCLSLCPSLISLDLSANPEISCASLEELLSTLQKRPQGLSFLGLSGCAVQGPLGLGLWDKIAAQLRELQLCSRRLCAEDRDALRQLQPSRPGPGECTLDHGSKLFFRRL
[4]
  binding: no binding
